Data published in patent US20200199196A1 (WASHINGTON UNIVERSITY, published 2020).
No constants are given. Whether binding was seen depends on the method and setting. Some results given as binding are weak or reduced against the parent protein; the word gives no strength.

T1: monomeric RANK (monomeric fragment of RANK) (UniProt O35305)
T1 sequence (looked up): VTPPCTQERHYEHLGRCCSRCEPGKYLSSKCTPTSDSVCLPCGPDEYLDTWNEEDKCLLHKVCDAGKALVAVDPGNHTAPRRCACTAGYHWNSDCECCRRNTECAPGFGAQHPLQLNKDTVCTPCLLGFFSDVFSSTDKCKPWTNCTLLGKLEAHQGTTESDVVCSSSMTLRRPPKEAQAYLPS


Experiments:
[1] = target: T1, monomeric RANK (monomeric fragment of RANK); assay: SPR (FIG. 5A)
[2] = target: T1, monomeric RANK (monomeric fragment of RANK); assay: yeast surface display, titration with RANK (FIG. 3B)

Row | binding [1] | binding [2] | Binder
1 | binds | – | WT-SM htRANKL (homotrimeric mouse RANKL with the solubility mutations C220S/I246E) (ligand, The format differs by assay; also called WT-SM RANKL; WT htRANKL) QPFAHLTINAASIPSGSHKVTLSSWYHDRGWAKISNMTLSNGKLRVNQDGFYYLYANISFRHHETSGSVPTDYLQLMVYVVKTSEKIPSSHNLMKGGSTKNWSGNSEFHFYSINVGGFFKLRAGEEISIQVSNPSLLDPDQDATYFGAFKVQDID
2 | – | binds | KQFH htRANKL (K194E, Q236H, F269Y, H270Y) (ligand, also called RANK^high variant) QPFAHLTINAASIPSGSHKVTLSSWYHDRGWAEISNMTLSNGKLRVNQDGFYYLYANISFRHHETSGSVPTDYLHLMVYVVKTSEKIPSSHNLMKGGSTKNWSGNSEYYFYSINVGGFFKLRAGEEISIQVSNPSLLDPDQDATYFGAFKVQDID
